Experimental data: patent US8623896B2, “Insecticidal compounds” (Syngenta Crop Protection, LLC, priority 2007, dated 2014)
Some entries share one result that the patent states for a list of compounds.

Columns and labels:
Type in all cases: in vivo
[1] = tested on: Heliothis virescens (Tobacco Budworm); experiment: Heliothis virescens egg test on artificial diet; conditions: 200 ppm (18 ppm in well), eggs on artificial diet, egg/larval mortality and growth regulation after 4 days
Description: Eggs (0-24 h old) were placed in 24-well microtiter plate on artificial diet and treated with test solutions at an application rate of 200 ppm (concentration in well 18 ppm) by pipetting. After an incubation period of 4 days, samples were checked for egg mortality, larval mortality, and growth regulation.

[2] = tested on: Spodoptera littoralis (Egyptian Cotton Leafworm); experiment: Spodoptera littoralis cotton leaf disc spray test; conditions: 200 ppm spray on cotton leaf discs, L1 larvae, mortality, feeding behavior, growth regulation 3 DAT
Excerpt: Cotton leaf discs were placed on agar in a 24-well microtiter plate and sprayed with test solutions at an application rate of 200 ppm. After drying, the leaf discs were infested with 5 L1 larvae. The samples were checked for mortality, feeding behavior, and growth regulation 3 days after treatment (DAT).

[3] = tested on: Diabrotica balteata (Corn Root Worm); experiment: Diabrotica balteata larvae test on artificial diet; conditions: 200 ppm (18 ppm in well), L2 larvae, larval mortality and growth regulation after 5 days
Description: (§1) A 24-well microtiter plate (MTP) with artificial diet was treated with test solutions at an application rate of 200 ppm (concentration in well 18 ppm) by pipetting. After drying, the MTP's were infested with L2 larvae (6-10 per well). After an incubation period of 5 days, samples were checked for larval mortality and growth regulation.

[4] = tested on: Plutella xylostella (Diamond Back Moth); experiment: Plutella xylostella larvae test on artificial diet; conditions: 200 ppm (18 ppm in well), L2 larvae, larval mortality and growth regulation after 6 days
Description: as §1, with “24-well” for “A 24-well”, “(7-12” for “(6-10”, “6” for “5”

[5] = tested on: Tetranychus urticae (Two-Spotted Spider Mite); experiment: Tetranychus urticae bean leaf disc spray test; conditions: 200 ppm spray on bean leaf discs, mixed ages, egg, larval and adult mortality after 8 days
Excerpt: Bean leaf discs on agar in 24-well microtiter plates were sprayed with test solutions at an application rate of 200 ppm. After drying, the leaf discs are infested with mite populations of mixed ages. 8 days later, discs are checked for egg mortality, larval mortality, and adult mortality.

[6] = tested on: Thrips tabaci (Onion Trips); experiment: Thrips tabaci sunflower leaf disc spray test; conditions: 200 ppm spray on sunflower leaf discs, mixed ages, mortality after 7 days

Cc1cc(C2=NOC(c3cc(C(F)(F)F)cc(C(F)(F)F)c3)(C(F)(F)F)C2)ccc1C(=O)NC1C[S+]([O-])C1 (mixture of isomers) [A22]
at least 80%: control of Heliothis virescens [1] | control of Spodoptera littoralis [2] | control of Diabrotica balteata [3] | control of Plutella xylostella [4] | control of Tetranychus urticae [5] | control of Thrips tabaci [6]

Cc1cc(C2=NOC(c3cccc(C(F)(F)F)c3)(C(F)(F)F)C2)ccc1C(=O)NC1C[S+]([O-])C1 (mixture of isomers) [A25]
at least 80%: control of Heliothis virescens [1] | control of Spodoptera littoralis [2] | control of Diabrotica balteata [3] | control of Plutella xylostella [4] | control of Tetranychus urticae [5] | control of Thrips tabaci [6]

Cc1cc(C2=NOC(c3cc(Cl)cc(Cl)c3)(C(F)(F)F)C2)ccc1C(=O)NC1C[S+]([O-])C1 (single isomer, unassigned) [A8]
at least 80%: control of Heliothis virescens [1] | control of Spodoptera littoralis [2] | control of Diabrotica balteata [3] | control of Plutella xylostella [4] | control of Tetranychus urticae [5] | control of Thrips tabaci [6]

Cc1cc(C2=NOC(c3cc(Cl)cc(Cl)c3)(C(F)(F)F)C2)ccc1C(=O)NC1C[S+]([O-])C1(C)C (single isomer, unassigned) [A11]
at least 80%: control of Heliothis virescens [1] | control of Spodoptera littoralis [2] | control of Diabrotica balteata [3] | control of Plutella xylostella [4] | control of Tetranychus urticae [5] | control of Thrips tabaci [6]

Cc1cc(C2=NOC(c3cc(Cl)cc(Cl)c3)(C(F)(F)F)C2)ccc1C(=O)NC1CSC1(C)C (stereo not shown) [A2]
at least 80%: control of Heliothis virescens [1] | control of Spodoptera littoralis [2] | control of Diabrotica balteata [3] | control of Plutella xylostella [4] | control of Tetranychus urticae [5] | control of Thrips tabaci [6]

Cc1cc(C2=NOC(c3cc(Cl)cc(Cl)c3)(C(F)(F)F)C2)ccc1C(=O)NC1C(C)(C)SC1(C)C (stereo not shown) [A3]
at least 80%: control of Heliothis virescens [1] | control of Spodoptera littoralis [2] | control of Diabrotica balteata [3] | control of Plutella xylostella [4] | control of Tetranychus urticae [5] | control of Thrips tabaci [6]

Cc1cc(C2=NOC(c3cc(Cl)cc(Cl)c3)(C(F)(F)F)C2)ccc1C(=O)NC1CSC1 (stereo not shown) [A4]
at least 80%: control of Heliothis virescens [1] | control of Spodoptera littoralis [2] | control of Diabrotica balteata [3] | control of Plutella xylostella [4] | control of Tetranychus urticae [5] | control of Thrips tabaci [6]

Cc1cc(C2=NOC(c3cc(Cl)cc(Cl)c3)(C(F)(F)F)C2)ccc1C(=O)NC1CS(=O)(=O)C1 (stereo not shown) [A10]
at least 80%: control of Heliothis virescens [1] | control of Spodoptera littoralis [2] | control of Diabrotica balteata [3] | control of Plutella xylostella [4] | control of Tetranychus urticae [5] | control of Thrips tabaci [6]

CC1(NC(=O)c2ccc(C3=NOC(c4cc(Cl)cc(Cl)c4)(C(F)(F)F)C3)cc2C(F)(F)F)CSC1 (stereo not shown) [A14]
at least 80%: control of Heliothis virescens [1] | control of Spodoptera littoralis [2] | control of Diabrotica balteata [3] | control of Plutella xylostella [4] | control of Tetranychus urticae [5] | control of Thrips tabaci [6]

O=C(NC1CSC1)c1ccc(C2=NOC(c3cc(Cl)cc(Cl)c3)(C(F)(F)F)C2)cc1C(F)(F)F (stereo not shown) [A15]
at least 80%: control of Heliothis virescens [1] | control of Spodoptera littoralis [2] | control of Diabrotica balteata [3] | control of Plutella xylostella [4] | control of Tetranychus urticae [5] | control of Thrips tabaci [6]

CC1(NC(=O)c2ccc(C3=NOC(c4cc(Cl)cc(Cl)c4)(C(F)(F)F)C3)cc2Br)CSC1 (stereo not shown) [A16]
at least 80%: control of Heliothis virescens [1] | control of Spodoptera littoralis [2] | control of Diabrotica balteata [3] | control of Plutella xylostella [4] | control of Tetranychus urticae [5] | control of Thrips tabaci [6]

O=C(NC1CSC1)c1ccc(C2=NOC(c3cc(Cl)cc(Cl)c3)(C(F)(F)F)C2)cc1Br (stereo not shown) [A17]
at least 80%: control of Heliothis virescens [1] | control of Spodoptera littoralis [2] | control of Diabrotica balteata [3] | control of Plutella xylostella [4] | control of Tetranychus urticae [5] | control of Thrips tabaci [6]

Cc1cc(C2=NOC(c3cccc(C(F)(F)F)c3)(C(F)(F)F)C2)ccc1C(=O)NC1CSC1 (stereo not shown) [A20]
at least 80%: control of Heliothis virescens [1] | control of Spodoptera littoralis [2] | control of Diabrotica balteata [3] | control of Plutella xylostella [4] | control of Tetranychus urticae [5] | control of Thrips tabaci [6]

Cc1cc(C2=NOC(c3cc(C(F)(F)F)cc(C(F)(F)F)c3)(C(F)(F)F)C2)ccc1C(=O)NC1(C)CSC1 (stereo not shown) [A21]
at least 80%: control of Heliothis virescens [1] | control of Spodoptera littoralis [2] | control of Diabrotica balteata [3] | control of Plutella xylostella [4] | control of Tetranychus urticae [5] | control of Thrips tabaci [6]

Cc1cc(C2=NOC(c3cc(C(F)(F)F)cc(C(F)(F)F)c3)(C(F)(F)F)C2)ccc1C(=O)NC1CSC1 (stereo not shown) [A23]
at least 80%: control of Heliothis virescens [1] | control of Spodoptera littoralis [2] | control of Diabrotica balteata [3] | control of Plutella xylostella [4] | control of Tetranychus urticae [5] | control of Thrips tabaci [6]

Cc1cc(C2=NOC(c3cccc(C(F)(F)F)c3)(C(F)(F)F)C2)ccc1C(=O)NC1(C)CSC1 (stereo not shown) [A24]
at least 80%: control of Heliothis virescens [1] | control of Spodoptera littoralis [2] | control of Diabrotica balteata [3] | control of Plutella xylostella [4] | control of Tetranychus urticae [5] | control of Thrips tabaci [6]

Cc1cc(C2=NOC(c3cc(Cl)cc(Cl)c3)(C(F)(F)F)C2)ccc1C(=O)NCC1CN(C(=O)OC(C)(C)C)C1 (stereo not shown) [B1]
at least 80%: control of Diabrotica balteata [3]

Cc1cc(C2=NOC(c3cc(Cl)cc(Cl)c3)(C(F)(F)F)C2)cc(Br)c1C(=O)NC1CSC1 (stereo not shown) [C1]
at least 80%: control of Heliothis virescens [1] | control of Diabrotica balteata [3] | control of Plutella xylostella [4]

Cc1cc(C2=NOC(c3cc(Cl)cc(Cl)c3)(C(F)(F)F)C2)cc(I)c1C(=O)NC1CSC1 (stereo not shown) [C2]
at least 80%: control of Heliothis virescens [1] | control of Diabrotica balteata [3] | control of Plutella xylostella [4] | control of Thrips tabaci [6]

Cc1cc(C2=NOC(c3cc(Cl)cc(Cl)c3)(C(F)(F)F)C2)c(Br)cc1C(=O)NC1CSC1 (stereo not shown) [C3]
at least 80%: control of Heliothis virescens [1] | control of Diabrotica balteata [3] | control of Plutella xylostella [4] | control of Thrips tabaci [6]

Cc1cc(C2=NOC(c3cc(Cl)cc(Cl)c3)(C(F)(F)F)C2)c(Cl)cc1C(=O)NC1CSC1 (stereo not shown) [C4]
at least 80%: control of Heliothis virescens [1] | control of Diabrotica balteata [3] | control of Plutella xylostella [4] | control of Thrips tabaci [6]
